{"source": "PubChem BioAssay AID743454 (Peter MacCallum Cancer Centre, 2014)", "aim": "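Knock-downs lowering viability or raising caspase 3/7 activity in vorinostat-treated resistant cells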 (primary screen)", "cells": "human HCT116-VR colon cancer cells, selected for vorinostat resistance", "reagents": "siRNA pool against human genes, 40 nM siRNA pool", "duration": "vorinostat for 24 h, read-out about 72 h after transfection", "conditions": "vorinostat at 2.5 µM final", "read-out": "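Cell viability by CellTiter-Fluor and caspase 3/7 activity by luminescence, each scaled to mock wells per plate, duplicates averaged, then robust z-scored over all plates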", "scale": "viability robust z-score: higher = more viable cells than screen typical; caspase robust z-score: higher = more caspase 3/7 activity than screen typical", "active means": "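Hits are knock-downs in viability class RV1/RV2 or caspase class CA1/CA2, excluding ones that killed cells in the no-drug cell-count arm; hits then retested with single siRNAs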", "note": "The whole screen tested about 18,000 reagents; this is a random part of them. 450 of them (2.5%) count as active. 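Single biological run; no consistent viability z cut-off exists, so the class columns, not z-scores, define the calls.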 Entries without a mark were called inactive."}
The first 2 records, to show the layout:
{"target": "STK26 (GeneID 51765)", "viability hit class": "no change", "caspase hit class": "no change", "viability robust z-score": 1.7, "caspase robust z-score": -0.8}
{"target": "MAP1LC3C (GeneID 440738)", "viability hit class": "no change", "caspase hit class": "no change", "viability robust z-score": 0.7, "caspase robust z-score": -0.14}

Main list, repeating the preview:
{"target": "STK26 (GeneID 51765)", "viability hit class": "no change", "caspase hit class": "no change", "viability robust z-score": 1.7, "caspase robust z-score": -0.8}
{"target": "MAP1LC3C (GeneID 440738)", "viability hit class": "no change", "caspase hit class": "no change", "viability robust z-score": 0.7, "caspase robust z-score": -0.14}
{"target": "SH3BGRL (GeneID 6451)", "viability hit class": "no change", "caspase hit class": "no change", "viability robust z-score": -0.76, "caspase robust z-score": 0.35}
{"target": "MTMR3 (GeneID 8897)", "viability hit class": "no change", "caspase hit class": "no change", "viability robust z-score": -0.91, "caspase robust z-score": -0.64}
{"target": "S100A3 (GeneID 6274)", "viability hit class": "no change", "caspase hit class": "no change", "viability robust z-score": 0.65, "caspase robust z-score": -0.62}
{"target": "CACNA1B (GeneID 774)", "viability hit class": "no change", "caspase hit class": "no change", "viability robust z-score": 0.43, "caspase robust z-score": -0.12}
{"target": "ST8SIA1 (GeneID 6489)", "viability hit class": "no change", "caspase hit class": "no change", "viability robust z-score": -1.44, "caspase robust z-score": -0.72}
{"target": "PAG1 (GeneID 55824)", "viability hit class": "no change", "caspase hit class": "no change", "viability robust z-score": -0.11, "caspase robust z-score": -0.15}
{"target": "GPR152 (GeneID 390212)", "viability hit class": "no change (active)", "caspase hit class": "CA1 (caspase activation)", "viability robust z-score": -1.44, "caspase robust z-score": 5.34}
{"target": "ZNF577 (GeneID 84765)", "viability hit class": "no change", "caspase hit class": "no change", "viability robust z-score": -0.84, "caspase robust z-score": -0.9}
{"target": "KRT33B (GeneID 3884)", "viability hit class": "no change", "caspase hit class": "no change", "viability robust z-score": 0.45, "caspase robust z-score": -0.58}
{"target": "CUL3 (GeneID 8452)", "viability hit class": "no change", "caspase hit class": "no change", "viability robust z-score": -0.02, "caspase robust z-score": -0.38}
{"target": "SLC23A2 (GeneID 9962)", "viability hit class": "no change", "caspase hit class": "no change", "viability robust z-score": 1.62, "caspase robust z-score": 0.11}
{"target": "NUBPL (GeneID 80224)", "viability hit class": "no change", "caspase hit class": "no change", "viability robust z-score": 0.45, "caspase robust z-score": -0.49}
{"target": "WDR72 (GeneID 256764)", "viability hit class": "no change", "caspase hit class": "no change", "viability robust z-score": 1.29, "caspase robust z-score": 0.92}
{"target": "PAX6 (GeneID 5080)", "viability hit class": "no change", "caspase hit class": "no change", "viability robust z-score": -0.4, "caspase robust z-score": -0.1}
{"target": "PNLIP (GeneID 5406)", "viability hit class": "no change", "caspase hit class": "no change", "viability robust z-score": 0.53, "caspase robust z-score": -0.53}
{"target": "CFAP141 (GeneID 388701)", "viability hit class": "no change", "caspase hit class": "no change", "viability robust z-score": -0.45, "caspase robust z-score": -0.88}
{"target": "NUDCD1 (GeneID 84955)", "viability hit class": "no change", "caspase hit class": "no change", "viability robust z-score": -0.39, "caspase robust z-score": -1.12}
{"target": "KLRC3 (GeneID 3823)", "viability hit class": "no change", "caspase hit class": "no change", "viability robust z-score": -2.48, "caspase robust z-score": 1.12}
{"target": "OR4N3P (GeneID 390539)", "viability hit class": "no change", "caspase hit class": "no change", "viability robust z-score": 1.17, "caspase robust z-score": -0.29}
